# Results from the supplement of paper PMC5407854, “Inhibitor of ppGalNAc-T3-mediated O-glycosylation blocks cancer cell invasiveness and lowers FGF23 levels” (eLife, 2017).
# Whole data set: some 1,700 compounds, median “T2 sensor activation Q score (MG/GFP ratio z-score vs DMSO controls)” near 0.3, cut for the highest 2% near 1.9. Some of the results follow.
# Tested on: ppGalNAc-T2 sensor
# Test: T2 sensor activation Q score (MG/GFP ratio z-score vs DMSO controls) (SD units); higher = more sensor activation (inhibition of ppGalNAc-T2 glycosylation)
# Conditions: HEK293 sensor cells; 10 µM; 6 h
# Procedure: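 Cells were treated with compound at 10 uM for 6 h, then MG/GFP ratio was read by flow cytometry (10,000 cells per well, duplicate wells). Q = (R - R_neg)/SD_neg relative to DMSO vehicle controls; the signal rises when the glycosyltransferase is inhibited.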
row,Compound,T2 sensor activation Q score
1,N#CC1C(=O)NC(=O)C(C#N)C12CCCC(C(F)(F)F)C2 (stereo not given),0.45
2,CCC(C)c1c(N)n(S(=O)(=O)c2ccc(C)cc2)oc1=O (stereo not given),1.05
3,CCCCOc1ccc(NC(=O)Nc2nnc(C)s2)cc1,0.05
4,CCOC(=O)c1nc(SC)n(C)c1C(=O)OCC,0.5
5,COc1cc(NC(=O)c2cc3ccccc3cc2O)c(OC)cc1Cl,1.15
6,O=C(O)C(Cc1c[nH]c2ccccc12)N1C(=O)c2ccccc2C1=O (stereo not given),1.2
7,Clc1cc2c(nn1)Nc1ccccc1S2,-0.35
8,CC(C)(C)NC1=NCCNC(c2ccccc2)=C1,-0.95
9,c1ccc(NN(Cc2ccncc2)c2ccccc2)cc1,0.95
10,O=C(CN1CCOCC1)N1CCOCC1,-0.35
11,CCCCCC(=O)C(=O)c1ccc(O)cc1O,-0.75
12,O=S1(=O)CCN(Cc2ccccn2)CC1,0.85
13,Cc1ccc(-n2nnnc2-c2cccnc2)cc1,1.5
14,COc1ccc([N+](=O)[O-])cc1NC(=O)N(C)Cc1ccco1,1.2
15,CC1(C)CC2(C)OC2C2(C1)N=NC(=Nc1ccccc1)O2 (stereo not given),0.3
16,Clc1ccccc1-c1nc(-c2ccncc2)no1,-0.65
17,O=C(O)CCc1cccnc1,-0.8
18,Nc1ccccc1C(=O)Nc1ccc(Cl)cc1Cl,0.45
19,N#Cc1cc(-c2ccccc2)[nH]c1-c1nccc2ccccc12,-0.2
20,C=CCOC(=O)/C=C\C(=O)NC(N)=O,0.05
21,CC(=O)c1cc2c(cc1C)CCCC2(C)C,-0.35
22,CC(C)(C)c1nc(-c2cccc(NS(=O)(=O)c3c(F)cccc3F)c2F)c(-c2ccnc(N)n2)s1,-0.35
23,O=C(c1ccccc1)c1ccc(-c2ccc(O)cc2)cc1,1.55
24,N#CCS(=O)(=O)c1cccc[n+]1[O-],0.45
25,CC1(C)c2ccccc2-c2nc3ccccc3cc2C1O (stereo not given),-0.95

row,Compound,T2 sensor activation Q score
1,O=CN/C=C\c1cc(O)ccc1O,-0.3
2,COC(=O)[C@H]1[C@H]2C[C@@H]3c4[nH]c5cc(OC)ccc5c4CCN3C[C@H]2C[C@@H](OC(=O)CC(C)=O)[C@@H]1OC,0.45
3,O=C1C(CO)C(CO)C(CO)C1CO (stereo not given),-2.3
4,N#CC1=C2CCCCC2(O)NC1=O (stereo not given),0.85
5,Nc1cc(-c2ccccc2)ccc1O,-0.5
6,O=C1N=NC2=C1c1c3ccccc3c(O)n1CC2,1.8
7,Nc1ccccc1SC1CC(=O)N(c2ccc(Cl)c(Cl)c2)C1=O (stereo not given),0.6
8,Nc1ccccc1SC1CC(=O)N(c2ccccc2Cl)C1=O (stereo not given),0.25
9,NC(N)=Nc1ccc(N=C(N)N)cc1,0.85
10,Nc1ccc(S(=O)(=O)Nc2cnc3ccccc3n2)cc1,0.95
11,O=c1ccn2c(n1)SC(c1ccccc1)C2 (stereo not given),0.65
12,N#Cc1ncc(Cl)c2ccccc12,1.3
13,CSc1nc(O)c(Nc2cccc(Cl)c2)c(=O)[nH]1,-0.55
14,Oc1ccccc1N=Cc1c(O)ccc2ccccc12,-0.4
15,COc1ccc2c(=O)cc(-c3cccnc3)oc2c1OC,1
16,CCCCSc1cc(C)nc(N)n1,-0.05
17,O=C(Nc1ccc(Cl)cc1)Nc1cccc2nsnc12,1.2
18,Cn1c(SCc2ccccn2)nc2c1c(=O)[nH]c(=O)n2C,1.15
19,CSc1cccc(NC(=O)N2CCN(C)CC2)c1,0.5
20,C#CCCOC(=O)Nc1ccccc1,-0.95
21,Clc1ccc(SCNc2ccccc2Cl)cc1,-1.05
22,OC(c1cc(-c2ccc(C(F)(F)F)cc2)nc(C(F)(F)F)c1)C1CCCCN1 (stereo not given),0.5
23,N=C(N)n1c(N)nc2ccccc2c1=O,-0.1
24,COC(=O)Cc1[nH]c(=O)[nH]c1C(=O)OC,1.15
25,O=C1NC(=O)N2CCSC2(Cc2ccccc2)N1 (stereo not given),0.8

row,Compound,T2 sensor activation Q score
1,Cc1cc(OCCCCOc2ccc(C#N)cc2)ccc1[N+](=O)[O-],1.45
2,C=C(C)C(=O)Oc1ccc(N=Nc2ccc(C)cc2)ccc1=O,1.1
3,Oc1ccc(/C=C/c2cnccn2)cc1,0.55
4,CCOC(=O)c1c(N)ssc1=S,-0.15
5,CC12C(=O)N(c3nccs3)C(=O)C1(C)C1CCC2O1 (stereo not given),-1.25
6,Cn1c(=O)c2[nH]c(SCc3ccccn3)nc2n(C)c1=S,0.45
7,CN1C(=O)CC2(C)C1=CCc1scnc12 (stereo not given),0.6
8,O=C(N(c1ccccc1)c1ccccc1)N(c1ccccc1)c1ccccc1,1.2
9,CCC(CC)NCCOC(=O)c1ccc([N+](=O)[O-])cc1,-1
10,O=[N+]([O-])c1cccc(/C=C/c2ccccn2)c1,-1.2
11,CC12CCC(C(=Nc3ccc(N=C4C(=O)C5(C)CCC4C5(C)C)cc3)C1=O)C2(C)C,1
12,Cc1cn(-c2cc(NC(=O)c3ccc(C)c(Nc4nccc(-c5cccnc5)n4)c3)cc(C(F)(F)F)c2)cn1,1.25
13,CC1=CC(C)(C)NC(=S)N1c1cccc2cc(S(=O)(=O)O)ccc12,1.05
14,OC(C#Cc1ccccc1)(c1ccccc1)c1ccccc1,0
15,C1CCCC(NC2=NCCO2)CCC1,0
16,O=[N+]([O-])c1ccc(Sc2cccc[n+]2[O-])c2nonc12,-0.55
17,Cc1ccc(Nc2n[nH]c(=S)s2)cc1F,-0.95
18,O=c1cc(-c2ccc(O)cc2)oc2c(O)c(O)c(O)c(O)c12,1.35
19,CC(C)(CO)N1CCN(C(=S)Nc2ccccc2)CC1,1.45
20,O=c1[nH]c(=O)n2ncnc2[nH]1,-0.4
21,CC12CCC(C1)C(C)(C)C2OC(=O)c1ccccc1C(=O)O (stereo not given),1.3
22,c1ccc(-c2nc[nH]c2-c2ccccc2)cc1,0.05
23,COc1ccn(C2CCCCO2)c(=O)n1 (stereo not given),0.7
24,CC1=CC(=O)Nc2cncnc2N1,-1.85
25,CC(=O)N1C(=O)C2(NCC(C)N2)c2ccccc21 (stereo not given),0.45

# Some values from the list.
# Entry of CC1=CC(C)(C)NC(=S)N1c1cccc2cc(S(=O)(=O)O)ccc12 under T2 sensor activation Q score: 1.05
# Entry of CC(=O)N1C(=O)C2(NCC(C)N2)c2ccccc21 (stereo not given) under T2 sensor activation Q score: 0.45

# Following part.

row,Compound,T2 sensor activation Q score
1,CCS(=O)(=O)C1C(=O)N(C)C(S(=O)(=O)CC)C(=O)N1C (stereo not given),0.9
2,COc1cc(CC(=O)C(=O)O)oc(=O)c1,0.95
3,COc1cccc2c1C(=O)c1c(O)c3c(c(O)c1C2=O)C[C@@](O)(C(=O)CO)C[C@@H]3O[C@H]1C[C@H](N)[C@@H](O)[C@H](C)O1,-2.9
4,Nc1o[nH]c(=O)c1C1CCCCC1,-0.8
5,C=CCC(CC)C(=O)NC(=O)N1CCCc2ccccc21 (stereo not given),1.05
6,COC(=O)C[C@](O)(CCCC(C)(C)O)C(=O)O[C@@H]1C(OC)=C[C@]23CCCN2CCc2cc4c(cc2[C@H]13)OCO4,4.5
7,CCOC(=O)/C=C/c1nc(C(=O)OCC)c(C)c(=O)[nH]1,-0.1
8,CCCn1cnc2c(=S)nc(N)[nH]c21,0.15
9,COc1cc(/C=N/Nc2nc3c([nH]2)c(=O)n(C)c(=O)n3C)ccc1O,1.7
10,CC(=O)O[C@H]1C(=O)[C@@]2(C)[C@H]([C@H](OC(=O)c3ccccc3)[C@]3(O)C[C@H](OC(=O)[C@H](O)[C@@H](NC(=O)c4ccccc4)c4ccccc4)C(C)=C1C3(C)C)[C@]1(OC(C)=O)CO[C@@H]1C[C@@H]2O,-0.9
11,NC(=S)NC(=O)c1ccccc1,1.4
12,CCCSc1ncnc2[nH]ncc12,0.65
13,O=[N+]([O-])c1ccc(/C=[N+](\[O-])CCO)o1,1.2
14,NC(N)=NC(=S)Nc1ccc(Cl)cc1,-1.6
15,C=CCOCCN(CC)CC,-1.25
16,Cc1ccc(Cl)cc1NC(=O)c1cc2ccccc2cc1O,-0.35
17,CCOP(=O)(OCC)/C(C#N)=C/c1ccc(-c2ccc(F)cc2F)o1,-0.9
18,CC(C)n1cc(C#N)c(N)n1,1.55
19,O=[N+]([O-])c1ccc2[nH]c3nc4ccccc4nc3c2c1,0.95
20,O=C(O)CSc1ccc(NC(=O)Nc2ccccc2F)cc1,0.4
21,COCC(=O)Oc1cc(-c2ccc(C)cc2C)c(OC(=O)COC)c(-c2ccc(C)cc2C)c1,0.9
22,CC(C)c1ncc(CO)n1Cc1c(Cl)cccc1Cl,0.65
23,Cc1cc(O)cc2c1[C@H]1CC[C@]3(C)C(=O)CC[C@H]3[C@@H]1C=C2,1.25
24,O=C(O)Cc1ccc(N=Nc2c(O)c(C(=O)O)cc3ccccc23)cc1,1.2
25,NS(=O)(=O)c1ccc(NC(=S)NC(=O)c2ccco2)cc1,1.85

# 4 neighbouring entries out of the list so far, for reference:
row,Compound,T2 sensor activation Q score
2,CCC(C)c1c(N)n(S(=O)(=O)c2ccc(C)cc2)oc1=O (stereo not given),1.05
3,CCCCOc1ccc(NC(=O)Nc2nnc(C)s2)cc1,0.05
4,CCOC(=O)c1nc(SC)n(C)c1C(=O)OCC,0.5
5,COc1cc(NC(=O)c2cc3ccccc3cc2O)c(OC)cc1Cl,1.15

# Additional records.

row,Compound,T2 sensor activation Q score
1,CC(C)CNC(=O)/C=C\C(=O)O,-1.85
2,CS(=O)(=O)OCCCCOS(C)(=O)=O,-0.8
3,CC(=O)Oc1ccc2cc(-c3ccccc3)c(=O)oc2c1,1.35
4,COc1ccc(NC(=O)N2CCN(C(=O)Nc3ccc(OC)cc3)CC2)cc1,0.45
5,Cn1ncc2c(NCc3ccccc3)ncnc21,1.3
6,O=C(C=Cc1ccc(O)c(O)c1)c1ccccc1O,-0.4
7,S=c1nc[nH]c2c1cnn2-c1ccccc1,0.2
8,c1ccc(N=NN2CCOCC2)cc1,-0.25
9,Clc1ccccc1/C=C/c1ccnc2ccccc12,0.15
10,CC1=CC(=C2C=CC(=O)C=C2)C=C(C)N1C,0.15
11,CCNc1nc(Cl)nc(-c2cn(-c3ccccc3)c3ccccc23)n1,-0.1
12,O=C1CC(c2ccc(O)cc2)Oc2cc(O)cc(O)c21 (stereo not given),0.75
13,O=C(Nc1cccc(Cl)c1)Nc1nccs1,0.95
14,CCC(C)NC(=O)c1cccc(C)c1 (stereo not given),1.85
15,CN(C)c1ccc(/C=C(\C#N)C(=O)c2ccccc2)cc1,-0.3
16,COc1ccccc1NC(=O)Nc1cc(C(C)C)ccc1C,-0.25
17,COc1cccc2c1C(=O)c1c(O)c3c(c(O)c1C2=O)C[C@@](O)(C(C)=O)C[C@@H]3O[C@H]1C[C@H](N)[C@H](O)[C@H](C)O1,-3.15
18,CNC(=O)c1cc(Oc2ccc(NC(=O)Nc3ccc(Cl)c(C(F)(F)F)c3)cc2)ccn1,-0.85
19,Cc1c([N+](=O)[O-])oc2c1C(=O)NCCC2,1.05
20,CN(c1cccnc1)c1ncnc2[nH]ncc12,1.15
21,Cc1ccc(Nc2nc(Cl)nc3ncn(C)c23)c(C)c1,0.55
22,COc1ccc([N+](=O)[O-])cc1NS(=O)(=O)c1ccc(C)cc1,-0.4
23,Cc1ccc(Nc2nnc(-c3ccc4c(c3)OCO4)o2)c(C)c1,0.5
24,Oc1[nH]c(N=C2N=c3ccccc3=N2)c2ccccc12,-0.35
25,C[C@@H]1C[C@H]2OC(=O)[C@@]3(C)CCC[C@@](C)([C@@H]23)[C@@]1(O)CCc1ccoc1,-1.85
